Consider three substances from paper PMC11098812.

The chains behind the UniProt entries cited, without tags or fusion partners. Where a name states a change or a piece, a line headed by the entry shows the natural chain unless it says otherwise.
UniProt Q9BYX4: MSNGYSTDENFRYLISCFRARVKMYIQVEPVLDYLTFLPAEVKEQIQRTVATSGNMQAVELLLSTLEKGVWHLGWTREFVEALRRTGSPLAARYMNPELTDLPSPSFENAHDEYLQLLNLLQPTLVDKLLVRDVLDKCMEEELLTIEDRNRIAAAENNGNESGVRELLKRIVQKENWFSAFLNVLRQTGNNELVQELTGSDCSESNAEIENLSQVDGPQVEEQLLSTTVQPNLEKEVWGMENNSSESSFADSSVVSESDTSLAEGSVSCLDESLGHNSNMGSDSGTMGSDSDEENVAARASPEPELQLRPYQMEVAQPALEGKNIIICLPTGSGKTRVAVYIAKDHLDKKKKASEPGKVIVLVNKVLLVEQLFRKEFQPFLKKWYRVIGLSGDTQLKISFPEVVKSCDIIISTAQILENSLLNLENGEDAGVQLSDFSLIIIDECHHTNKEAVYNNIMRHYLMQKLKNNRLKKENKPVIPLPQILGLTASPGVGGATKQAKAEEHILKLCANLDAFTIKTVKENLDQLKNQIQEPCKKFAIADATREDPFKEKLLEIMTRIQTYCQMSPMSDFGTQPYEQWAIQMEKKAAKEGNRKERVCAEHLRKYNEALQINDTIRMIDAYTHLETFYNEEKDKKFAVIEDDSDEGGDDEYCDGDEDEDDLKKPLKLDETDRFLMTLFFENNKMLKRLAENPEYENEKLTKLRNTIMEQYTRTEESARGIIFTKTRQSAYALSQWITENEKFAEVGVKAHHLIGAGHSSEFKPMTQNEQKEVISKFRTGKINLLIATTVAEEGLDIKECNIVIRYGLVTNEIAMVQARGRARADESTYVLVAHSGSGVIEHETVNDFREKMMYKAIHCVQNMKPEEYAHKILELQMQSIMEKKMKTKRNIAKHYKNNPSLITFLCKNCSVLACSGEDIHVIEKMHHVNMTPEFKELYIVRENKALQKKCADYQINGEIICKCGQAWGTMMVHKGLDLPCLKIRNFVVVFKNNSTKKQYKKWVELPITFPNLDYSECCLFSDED
UniProt Q61824: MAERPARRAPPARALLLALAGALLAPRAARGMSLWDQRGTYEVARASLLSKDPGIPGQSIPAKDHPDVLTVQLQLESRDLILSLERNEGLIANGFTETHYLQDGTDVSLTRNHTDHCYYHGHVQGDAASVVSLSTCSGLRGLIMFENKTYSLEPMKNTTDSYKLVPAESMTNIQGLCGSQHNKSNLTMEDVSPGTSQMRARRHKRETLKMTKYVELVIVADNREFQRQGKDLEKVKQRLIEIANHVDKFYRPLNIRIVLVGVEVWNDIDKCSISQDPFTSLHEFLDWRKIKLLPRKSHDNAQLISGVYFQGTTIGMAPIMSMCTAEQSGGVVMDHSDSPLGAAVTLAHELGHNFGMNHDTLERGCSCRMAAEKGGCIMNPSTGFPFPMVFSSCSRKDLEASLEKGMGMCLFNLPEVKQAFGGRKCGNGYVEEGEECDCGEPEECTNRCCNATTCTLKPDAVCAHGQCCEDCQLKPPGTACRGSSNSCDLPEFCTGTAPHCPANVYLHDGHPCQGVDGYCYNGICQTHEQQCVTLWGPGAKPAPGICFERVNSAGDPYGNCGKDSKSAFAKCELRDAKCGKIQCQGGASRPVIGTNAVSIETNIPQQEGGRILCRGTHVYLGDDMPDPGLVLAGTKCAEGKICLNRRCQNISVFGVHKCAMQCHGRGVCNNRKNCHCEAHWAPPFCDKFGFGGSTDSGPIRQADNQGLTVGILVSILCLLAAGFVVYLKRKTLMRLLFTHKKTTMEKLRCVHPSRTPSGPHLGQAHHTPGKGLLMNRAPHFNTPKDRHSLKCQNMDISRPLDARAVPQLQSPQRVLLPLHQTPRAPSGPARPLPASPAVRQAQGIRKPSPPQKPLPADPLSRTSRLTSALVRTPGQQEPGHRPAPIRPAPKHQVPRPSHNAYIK
UniProt Q9Z0F8: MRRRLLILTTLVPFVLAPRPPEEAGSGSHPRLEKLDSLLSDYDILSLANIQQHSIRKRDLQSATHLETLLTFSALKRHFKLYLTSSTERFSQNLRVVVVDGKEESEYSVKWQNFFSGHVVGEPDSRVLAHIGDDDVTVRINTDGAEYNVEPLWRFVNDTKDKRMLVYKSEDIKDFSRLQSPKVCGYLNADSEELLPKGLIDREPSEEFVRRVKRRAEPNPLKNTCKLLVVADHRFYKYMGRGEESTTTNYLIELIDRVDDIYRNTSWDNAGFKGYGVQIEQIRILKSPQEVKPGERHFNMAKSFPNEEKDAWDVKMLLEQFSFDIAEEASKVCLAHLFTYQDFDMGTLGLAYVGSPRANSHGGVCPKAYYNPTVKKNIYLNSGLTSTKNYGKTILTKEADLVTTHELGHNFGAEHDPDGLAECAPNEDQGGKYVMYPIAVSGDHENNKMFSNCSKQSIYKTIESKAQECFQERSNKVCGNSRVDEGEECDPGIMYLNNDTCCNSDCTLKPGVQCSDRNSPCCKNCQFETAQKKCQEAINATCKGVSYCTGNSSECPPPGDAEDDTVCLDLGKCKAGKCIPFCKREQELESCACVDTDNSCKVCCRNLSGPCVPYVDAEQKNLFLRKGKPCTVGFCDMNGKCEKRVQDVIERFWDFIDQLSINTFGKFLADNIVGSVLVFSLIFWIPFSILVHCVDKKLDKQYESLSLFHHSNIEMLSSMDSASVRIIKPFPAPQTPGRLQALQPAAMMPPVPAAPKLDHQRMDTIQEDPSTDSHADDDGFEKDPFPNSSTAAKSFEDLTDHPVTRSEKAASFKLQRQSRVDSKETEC
UniProt Q61072: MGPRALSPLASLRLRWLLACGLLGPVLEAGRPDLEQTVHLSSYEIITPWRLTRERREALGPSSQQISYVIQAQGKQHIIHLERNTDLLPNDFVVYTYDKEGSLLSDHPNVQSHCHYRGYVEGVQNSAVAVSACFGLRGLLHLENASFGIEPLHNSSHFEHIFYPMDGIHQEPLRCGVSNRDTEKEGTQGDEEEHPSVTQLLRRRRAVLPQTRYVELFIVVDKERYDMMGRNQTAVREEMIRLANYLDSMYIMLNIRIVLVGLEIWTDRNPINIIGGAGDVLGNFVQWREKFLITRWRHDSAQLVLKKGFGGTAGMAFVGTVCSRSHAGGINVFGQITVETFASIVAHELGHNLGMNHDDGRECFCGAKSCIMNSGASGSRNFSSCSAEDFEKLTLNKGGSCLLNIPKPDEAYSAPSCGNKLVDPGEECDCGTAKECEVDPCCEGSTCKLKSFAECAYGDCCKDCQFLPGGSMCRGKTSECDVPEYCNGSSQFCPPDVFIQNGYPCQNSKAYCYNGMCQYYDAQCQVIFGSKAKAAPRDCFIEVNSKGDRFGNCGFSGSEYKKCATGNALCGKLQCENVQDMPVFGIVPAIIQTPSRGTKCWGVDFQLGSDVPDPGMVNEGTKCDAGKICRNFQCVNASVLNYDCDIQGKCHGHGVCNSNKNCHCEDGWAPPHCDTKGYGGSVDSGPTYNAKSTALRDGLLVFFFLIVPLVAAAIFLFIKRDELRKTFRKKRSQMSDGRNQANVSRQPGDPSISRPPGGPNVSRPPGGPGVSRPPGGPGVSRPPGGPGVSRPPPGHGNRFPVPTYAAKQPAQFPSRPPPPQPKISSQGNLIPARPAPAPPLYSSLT

Results are given in words; binding and its absence hold for the method and conditions named. Binding seen in cells or lysates may run through a third protein. For some of these results: A result given as binding can be weak or reduced; the word gives no strength. For some of these results: Sequences can lack the tags named with a protein.

Assay [1] has as its target T1, endogenous MDA5 (mouse lung fibroblasts) (mouse (endogenous in lung fibroblasts)) (UniProt Q8R5F7).
T1 sequence: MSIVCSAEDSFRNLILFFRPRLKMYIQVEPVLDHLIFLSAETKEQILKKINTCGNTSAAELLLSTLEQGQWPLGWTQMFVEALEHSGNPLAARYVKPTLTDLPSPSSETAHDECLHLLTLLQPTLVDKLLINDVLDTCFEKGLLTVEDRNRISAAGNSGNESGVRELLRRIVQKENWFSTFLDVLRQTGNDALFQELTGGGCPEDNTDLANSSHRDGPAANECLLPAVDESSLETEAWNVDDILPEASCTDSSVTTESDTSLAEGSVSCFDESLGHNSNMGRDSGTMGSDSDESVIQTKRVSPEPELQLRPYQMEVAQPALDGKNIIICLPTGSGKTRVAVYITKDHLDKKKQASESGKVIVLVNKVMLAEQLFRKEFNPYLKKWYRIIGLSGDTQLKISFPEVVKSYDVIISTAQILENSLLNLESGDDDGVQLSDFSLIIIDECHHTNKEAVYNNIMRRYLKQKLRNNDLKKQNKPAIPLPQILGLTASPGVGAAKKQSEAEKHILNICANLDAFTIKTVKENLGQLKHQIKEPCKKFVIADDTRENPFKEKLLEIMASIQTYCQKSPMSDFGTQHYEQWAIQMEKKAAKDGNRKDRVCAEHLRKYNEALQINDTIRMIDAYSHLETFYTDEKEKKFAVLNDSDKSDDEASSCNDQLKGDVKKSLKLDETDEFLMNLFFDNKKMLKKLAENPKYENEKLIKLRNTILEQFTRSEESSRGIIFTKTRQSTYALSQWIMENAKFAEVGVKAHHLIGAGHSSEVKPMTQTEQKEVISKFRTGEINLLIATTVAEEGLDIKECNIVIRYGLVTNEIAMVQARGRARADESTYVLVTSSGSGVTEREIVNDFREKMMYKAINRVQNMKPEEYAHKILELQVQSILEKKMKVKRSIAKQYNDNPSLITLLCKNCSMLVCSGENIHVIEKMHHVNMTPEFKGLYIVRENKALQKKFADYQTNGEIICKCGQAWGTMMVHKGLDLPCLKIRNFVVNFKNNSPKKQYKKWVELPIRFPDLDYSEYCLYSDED
The assay is described as follows: co-IP; endogenous proteins in LFs mock-treated or transfected with EMCV RNA (400 ng/ml) for 16 h; IP with anti-MDA5 (or IgG isotype control), protein G magnetic beads, immunoblot.

For assay [2], the target named is FLAG-tagged human MDA5 (human) (UniProt Q9BYX4). The assay is described as follows: co-IP; FLAG pull-down with anti-FLAG M2 magnetic beads (4 °C, 4-16 h) from lysates of HEK293T cells co-expressing the two proteins for 24 h; immunoblot. In general terms: A western blot detects proteins with antibodies after separation by electrophoresis.
Assay [3] concerns the target T2, FLAG-tagged murine MDA5 (mouse) (UniProt Q8R5F7).
T2 sequence: T1 sequence
The description is as above.

In the case of “endogenous ADAM12 (mouse lung fibroblasts) (from UniProt Q61824)”, in assay [1], the binding entry is “no binding”. Regarding “endogenous ADAM17 (mouse lung fibroblasts) (from UniProt Q9Z0F8)”, in assay [1], the binding result was “no binding”. Regarding “murine ADAM9 catalytically inactive mutant (E→A) (from UniProt Q61072)”, the binding result in assay [2] and in assay [3] was “binds” each time.
